Measurements as given in patent US20190144401A1, “IMINOSYDNONE DERIVATIVES FOR CONJUGATION AND RELEASE OF COMPOUNDS OF INTEREST” (UNIVERSITE DE STRASBOURG, priority 2014, published 2019).

Test: HPLC monitoring of the reaction of iminosydnones with TMTH in PBS buffer
Format: physicochemical
Conditions: after 30 min; 100 μM in PBS buffer (pH 7.4), 150 μM TMTH

Structure (SMILES) | extent of reaction with TMTH
CC(=O)[N-]c1c[n+](-c2ccccc2)no1 [Im2] | almost complete reaction
Cc1ccc(NC(=O)[N-]c2c[n+](-c3ccccc3)no2)cc1 [Im5] | almost complete reaction
